Laboratory results as given in paper PMC11009390.

The chains behind the UniProt entries cited, without tags or fusion partners. Where a name states a change or a piece, a line headed by the entry shows the natural chain unless it says otherwise.
UniProt O43847: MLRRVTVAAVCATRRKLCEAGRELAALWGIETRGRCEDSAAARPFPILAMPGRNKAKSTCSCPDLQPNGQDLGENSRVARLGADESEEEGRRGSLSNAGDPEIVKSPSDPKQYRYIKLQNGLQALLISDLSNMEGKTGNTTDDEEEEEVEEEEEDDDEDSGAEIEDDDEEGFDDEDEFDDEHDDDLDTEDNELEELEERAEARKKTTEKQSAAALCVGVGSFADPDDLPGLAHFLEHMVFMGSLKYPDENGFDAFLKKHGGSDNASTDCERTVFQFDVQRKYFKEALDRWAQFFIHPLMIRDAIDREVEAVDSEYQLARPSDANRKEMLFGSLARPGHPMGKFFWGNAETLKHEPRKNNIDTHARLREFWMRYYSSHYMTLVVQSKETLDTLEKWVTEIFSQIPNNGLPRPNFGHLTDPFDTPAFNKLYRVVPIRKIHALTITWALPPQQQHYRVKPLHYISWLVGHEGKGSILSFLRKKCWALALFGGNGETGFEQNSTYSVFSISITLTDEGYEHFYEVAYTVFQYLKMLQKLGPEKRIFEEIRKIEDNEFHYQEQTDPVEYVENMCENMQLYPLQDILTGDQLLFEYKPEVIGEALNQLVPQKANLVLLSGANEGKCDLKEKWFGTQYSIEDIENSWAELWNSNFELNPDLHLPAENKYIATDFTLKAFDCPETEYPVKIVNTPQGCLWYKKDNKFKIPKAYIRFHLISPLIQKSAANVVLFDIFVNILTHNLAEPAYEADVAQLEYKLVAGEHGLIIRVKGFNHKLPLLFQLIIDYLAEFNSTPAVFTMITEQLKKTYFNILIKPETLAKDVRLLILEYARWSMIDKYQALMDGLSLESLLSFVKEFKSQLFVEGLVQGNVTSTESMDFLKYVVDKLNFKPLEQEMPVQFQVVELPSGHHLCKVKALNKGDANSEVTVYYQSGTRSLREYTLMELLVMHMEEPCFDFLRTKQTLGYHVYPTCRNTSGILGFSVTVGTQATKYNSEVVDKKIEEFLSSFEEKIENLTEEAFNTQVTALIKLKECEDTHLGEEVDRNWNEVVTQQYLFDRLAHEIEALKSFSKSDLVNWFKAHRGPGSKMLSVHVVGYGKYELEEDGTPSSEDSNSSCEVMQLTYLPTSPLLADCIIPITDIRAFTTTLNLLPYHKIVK
UniProt Q9H4B4: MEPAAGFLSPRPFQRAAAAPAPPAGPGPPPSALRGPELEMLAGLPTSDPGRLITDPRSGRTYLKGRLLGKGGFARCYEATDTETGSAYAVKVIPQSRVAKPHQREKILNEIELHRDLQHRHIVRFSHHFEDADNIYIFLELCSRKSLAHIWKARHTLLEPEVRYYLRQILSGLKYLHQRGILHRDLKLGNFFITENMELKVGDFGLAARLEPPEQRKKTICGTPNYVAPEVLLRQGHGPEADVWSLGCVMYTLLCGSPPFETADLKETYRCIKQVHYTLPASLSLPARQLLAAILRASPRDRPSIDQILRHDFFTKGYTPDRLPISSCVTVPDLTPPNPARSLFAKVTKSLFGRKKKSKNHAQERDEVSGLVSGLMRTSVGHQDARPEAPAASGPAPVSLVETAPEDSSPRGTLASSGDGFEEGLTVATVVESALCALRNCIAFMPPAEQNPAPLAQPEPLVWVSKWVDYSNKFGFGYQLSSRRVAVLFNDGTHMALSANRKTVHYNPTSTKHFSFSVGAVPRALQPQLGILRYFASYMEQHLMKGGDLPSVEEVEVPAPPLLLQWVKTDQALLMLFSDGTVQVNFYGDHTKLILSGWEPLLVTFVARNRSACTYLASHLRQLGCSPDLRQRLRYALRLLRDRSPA
UniProt P53350: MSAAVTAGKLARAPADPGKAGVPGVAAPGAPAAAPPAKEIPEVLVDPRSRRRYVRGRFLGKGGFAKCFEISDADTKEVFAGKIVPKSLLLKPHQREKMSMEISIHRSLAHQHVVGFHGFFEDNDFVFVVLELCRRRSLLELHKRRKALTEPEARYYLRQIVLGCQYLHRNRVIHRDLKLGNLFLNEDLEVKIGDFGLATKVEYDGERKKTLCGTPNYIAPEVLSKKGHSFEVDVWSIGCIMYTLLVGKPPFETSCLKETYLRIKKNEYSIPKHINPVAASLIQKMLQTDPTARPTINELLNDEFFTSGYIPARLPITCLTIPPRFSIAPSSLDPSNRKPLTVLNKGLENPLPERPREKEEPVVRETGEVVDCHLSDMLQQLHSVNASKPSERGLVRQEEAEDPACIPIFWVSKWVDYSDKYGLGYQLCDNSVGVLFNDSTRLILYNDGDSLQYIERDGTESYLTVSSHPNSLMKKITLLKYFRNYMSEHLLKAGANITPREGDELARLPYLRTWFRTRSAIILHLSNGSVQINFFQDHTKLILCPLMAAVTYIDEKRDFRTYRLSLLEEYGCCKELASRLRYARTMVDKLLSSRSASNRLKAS

Key:
[1] = biological target: nardilysin (NRDC) (human (endogenous in PANC-1)) (UniProt O43847); assay: co-IP; co-IP of NRDC from PANC-1 cells transfected with Flag-p72Plk3, treated with or without LY294002 (32 μM); immunoblot
[2] = biological target: Flag-p72Plk3 (full-length human Polo-like kinase 3, 1-646 aa) (human) (UniProt Q9H4B4); assay: co-IP; 1 mg protein extract of cells (PANC-1) transfected with the Flag-tagged Plk3 construct, anti-Flag (M2) magnetic beads, 4 °C overnight; partner detected by Western blot
[3] = biological target: Plk1 (p68Plk1) (UniProt P53350); assay: co-IP; IP and IB of Plk1-NRDC in PANC-1 cells; which partner was precipitated is not told

binding [1] | binding [2] | binding [3] | Molecule
binds |  |  | Flag-p72Plk3 (full-length human Polo-like kinase 3, 1-646 aa) (from UniProt Q9H4B4 1-646) (enzyme)
 | binds | binds | nardilysin (NRDC) (from UniProt O43847) (enzyme)
binds |  |  | centaurin-α1 (protein, UniProt O75689 1-374) MAKERRRAVLELLQRPGNARCADCGAPDPDWASYTLGVFICLSCSGIHRNIPQVSKVKSVRLDAWEEAQVEFMASHGNDAARARFESKVPSFYYRPTPSDCQLLREQWIRAKYERQEFIYPEKQEPYSAGYREGFLWKRGRDNGQFLSRKFVLTEREGALKYFNRNDAKEPKAVMKIEHLNATFQPAKIGHPHGLQVTYLKDNSTRNIFIYHEDGKEIVDWFNALRAARFHYLQVAFPGAGDADLVPKLSRNYLKEGYMEKTGPKQTEGFRKRWFTMDDRRLMYFKDPLDAFARGEVFIGSKESGYTVLHGFPPSTQGHHWPHGITIVTPDRKFLFACETESDQREWVAAFQKAVDRPMLPQEYAVEAHFKHKP

No constants are given. Whether binding was seen depends on the method and setting. In cells and extracts the contact can be indirect. Binding can be weak; no strength is given.
